Source: article PMC11455913

Sequences of proteins named here, by UniProt entry; tags and fusion partners are left off.
UniProt P14618: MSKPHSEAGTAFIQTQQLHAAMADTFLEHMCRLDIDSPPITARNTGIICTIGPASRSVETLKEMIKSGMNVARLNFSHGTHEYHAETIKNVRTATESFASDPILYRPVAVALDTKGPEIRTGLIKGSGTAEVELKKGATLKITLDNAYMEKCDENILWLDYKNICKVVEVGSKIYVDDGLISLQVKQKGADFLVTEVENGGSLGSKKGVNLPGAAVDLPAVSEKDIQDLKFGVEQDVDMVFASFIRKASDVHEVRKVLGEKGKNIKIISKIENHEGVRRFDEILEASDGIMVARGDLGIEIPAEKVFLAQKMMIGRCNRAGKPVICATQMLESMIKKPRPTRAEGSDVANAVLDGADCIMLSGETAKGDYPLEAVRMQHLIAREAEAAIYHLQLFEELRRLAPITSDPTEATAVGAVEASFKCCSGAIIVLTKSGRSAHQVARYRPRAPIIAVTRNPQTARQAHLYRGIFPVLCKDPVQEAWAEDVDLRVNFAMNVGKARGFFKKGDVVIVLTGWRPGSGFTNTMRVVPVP
UniProt P04406: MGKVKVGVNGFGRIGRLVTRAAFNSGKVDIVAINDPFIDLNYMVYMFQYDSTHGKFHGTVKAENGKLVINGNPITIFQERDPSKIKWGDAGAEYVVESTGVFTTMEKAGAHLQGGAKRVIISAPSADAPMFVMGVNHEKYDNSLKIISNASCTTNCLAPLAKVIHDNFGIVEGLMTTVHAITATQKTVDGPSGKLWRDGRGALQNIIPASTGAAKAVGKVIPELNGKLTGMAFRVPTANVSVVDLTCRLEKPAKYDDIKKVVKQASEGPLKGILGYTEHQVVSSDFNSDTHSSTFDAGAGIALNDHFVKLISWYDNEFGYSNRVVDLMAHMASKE

Biological target: T1, FLAG-tagged CHAC1 (glutathione-specific gamma-glutamylcyclotransferase 1) (human) (UniProt Q9BUX1)
T1 sequence: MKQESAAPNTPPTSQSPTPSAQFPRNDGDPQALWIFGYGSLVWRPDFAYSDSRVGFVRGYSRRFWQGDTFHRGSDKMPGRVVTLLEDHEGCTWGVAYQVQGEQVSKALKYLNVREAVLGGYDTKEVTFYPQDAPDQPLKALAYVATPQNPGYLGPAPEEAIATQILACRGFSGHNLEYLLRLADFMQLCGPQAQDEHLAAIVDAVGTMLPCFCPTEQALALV
Test: affinity purification with mass spectrometry; anti-FLAG monoclonal antibodies and paramagnetic beads on lysate of CHAC1 OE A549 cells; SDS-PAGE, silver staining, shotgun LC-MS/MS

binding | Substance
binds | PKM2 (pyruvate kinase M2), endogenous (from UniProt P14618 1-531)
binds | GAPDH, endogenous (from UniProt P04406 1-335)

Results are given in words; binding and its absence hold for the method and conditions named. In cells and extracts the contact can be indirect. A yes stands for co-enrichment or nearness to the bait. Other partners may have been found. Sequences can lack the tags named with a protein.
